In publication PMC10873425:
These are yes or no findings as the source states them, for the method shown. In cells and extracts the contact can be indirect. Some entries that bind do so weakly or less than the wild type.

Amino acid sequences for entries named in this document (tags omitted).
UniProt P09528: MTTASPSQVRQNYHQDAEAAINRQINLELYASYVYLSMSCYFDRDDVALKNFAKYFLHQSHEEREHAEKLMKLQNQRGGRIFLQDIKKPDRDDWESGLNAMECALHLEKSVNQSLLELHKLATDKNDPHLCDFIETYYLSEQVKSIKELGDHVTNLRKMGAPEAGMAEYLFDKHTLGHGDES

How the values were obtained:
[1] = target: ferritin heavy chain 1 (FTH1) (mouse (endogenous in MOVAS)) (UniProt P09528); assay: proximity ligation; in situ PLA (Duolink In Situ Red, anti-NCOA4 and anti-ferritin) in cultured VSMCs upon Ang II+Bleo treatment; with or without rosiglitazone
[2] = target: ferritin heavy chain 1 (FTH1) (mouse (endogenous in MOVAS)) (UniProt P09528); assay: condition: only normal condition, without Ang II+Bleo; proximity ligation; in situ PLA (Duolink In Situ Red, anti-NCOA4 and anti-ferritin) in cultured VSMCs in normal condition (no Ang II+Bleo)
[3] = target: ferritin heavy chain 1 (FTH1) (mouse (endogenous in MOVAS)) (UniProt P09528); assay: co-IP; FTH1 and NCOA4 in cultured VSMCs (MOVAS) treated with Ang II+Bleo; NP-40 lysate, anti-FTH1, protein A/G PLUS-Agarose, immunoblotting; with or without PPARγ activation (rosiglitazone)

binding [1]: binds
binding [2]: no binding
binding [3]: binds
B1: nuclear receptor coactivator 4 (NCOA4), endogenous (protein, UniProt Q5U4H9 1-625)
chain: MNTSLEQSGCYSNRETLLRCSDARRELELAIGGVLRAEQQIKDNLREVKAQIHSCISRHLECLRSREVWLNEQVDLIYQLKEETLQQQAQQLYWLMGQFNCLIHQLEYTQNKDLANQVSVCLERLGSLALKPEDSTVLLFEADTSALRQTITTFGSLKTIQIPEHLMAHASSSSIGPFLEKRGYIQVPEQKSASSGTAVSLSEWLLVSKPAIGLQAPYVPSTNPQDWLIPKQTSENSQTSARACSFFSDAWGNLKGLENWLLNSHQQEIAGKPSSSKCNSHCSTSSFSPEAEKAEDVELLDQDELDLSDWLVTPQEPCELEKPVDGSWETSEKFKLLFQVFREPYNVSDWLVKPDSCTNCQGNQPRGVEIENLGNLKCLNDHLEAKKSVSVPGATISDGWLAQNHQDTWKVEEVCKANEPCTSFAECVCDDNCEKEAMYKWLLKKGGKDKNGMPMEPKSEPEKHRESLTLWLCPSRNELTEQAKAPKAMAPARIADSFHVIKNSSLSEWLMGPTCKGGPKDVPNTEERAGKEMLQSSMATSWCPFNTADWVLPGKKVGSLSQFPSGEDKWLLRKKAQEAFLNSPLQEERNFRPDCYGLPAVCDLFACMQLKVDKEKWLYRTPLQM
